Results are given in words; binding and its absence hold for the method and conditions named. Binding seen in cells or lysates may run through a third protein. These calls come from enrichment with a bait or labelling near it, and not all partners need be listed. Where a sequence is shown, tags or fusion partners need not be part of it.

The test concerns the target T1, HA-TurboID-PRDX6 (not stated (human or mouse cDNA cloned)) (UniProt O08709).
T1 sequence: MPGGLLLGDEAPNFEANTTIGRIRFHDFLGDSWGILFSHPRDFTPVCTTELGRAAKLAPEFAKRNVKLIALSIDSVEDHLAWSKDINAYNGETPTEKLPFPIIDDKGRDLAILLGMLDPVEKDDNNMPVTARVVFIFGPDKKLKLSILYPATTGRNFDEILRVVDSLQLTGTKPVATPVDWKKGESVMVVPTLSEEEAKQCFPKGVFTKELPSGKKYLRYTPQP
The test is described as follows: proximity labelling; WT or PRDX6 KO MEFs expressing HA-TurboID-empty, -PRDX1 or -PRDX6, 30 min with DMSO or 50 uM biotin; lysates incubated with Streptavidin Sepharose overnight at 4 °C; pulldown analysed by immunoblotting. On the technique in general: A western blot detects proteins with antibodies after separation by electrophoresis.

For the molecule “selenophosphate synthetase 2 (SEPHS2) in MEFs (from UniProt P97364 1-452) (enzyme)”, the binding entry is recorded as “binds”.

B1: selenocysteine lyase (SCLY) in MEFs (enzyme, UniProt Q9JLI6 1-432)
chain: MDAARNGALGSVESLPDRKVYMDYNATTPLEPEVIQAVTEAMKEAWGNPSSSYVSGRKAKDIINAARASLAKMIGGKPQDIIFTSGGTESNNLVIHSMVRCFHEQQTLKGNMVDQHSPEEGTRPHFITCTVEHDSIRLPLEHLVENQMAEVTFVPVSKVNGQAEVEDILAAVRPTTCLVTIMLANNETGVIMPVSEISRRIKALNQIRAASGLPRVLVHTDAAQALGKRRVDVEDLGVDFLTIVGHKFYGPRIGALYVRGVGKLTPLYPMLFGGGQERNFRPGTENTPMIAGLGKAADLVSENCETYEAHMRDIRDYLEERLEAEFGKRIHLNSRFPGVERLPNTCNFSIQGSQLQGYTVLAQCRTLLASVGASCHSNHEDRPSPVLLSCGIPVDVARNAVRLSVGRGTTRADVDLIVQDLKQAVAQLEGRL
Turning to B1, the binding entry is “binds”.

The values above are taken from article PMC11327102.
